The list shows only some results of the screen, not a fair sample: it is rich in T/C values a quarter to a half above the control, in often repeated tests (any T/C) and in doses without a T/C. Further doses and runs are listed elsewhere. T/C: endpoint of the treated group in % of that of the vehicle group. Some doses have a count of surviving animals in place of a T/C: the source files T/C as zero there, which appears to mark a toxic dose or a test without result, not a measured value. Some doses without a T/C left all or most animals alive at the check, yet need not have been tolerated: survival well below the control is almost never listed, so the zero probably covers shortened survival too. Survivors were counted at the toxicity check, usually on the fifth day, unless a day is given; later deaths do not show. Schedule codes are those of the source, read here as Q, the interval in days (D) or hours (H), X, the number of doses. Brackets with × give the number of equal values in this list. Some entries were tested several times; the values are given in rising order. For survival time, the PubChem record calls one and a half times the control and up active, and a quarter to a half above the control has no call in these data; cut-offs in other NCI protocols can differ. Some T/C values are followed by the survivors on the day toxicity was checked, most often the fifth; without a count, all were alive then.
System: P388 leukemia ip, CD2F1 mice, survival T/C
Assay: NCI In Vivo Anticancer Drug Screen. Data for tumor model P388 Leukemia (intraperitoneal) in CD2F1 (CDF1) mice
Settings: T/C endpoint: median survival time, higher T/C = longer survival

In the case of `Cc1c2ccncc2c(C)c2c1[nH]c1ccccc12`, the survivor count (dose: 50.0 mg/kg/injection, schedule: Q04DX003 (ip), vehicle: clinical formulation) is reported as 4 of 8, the T/C (dose: 50.0 mg/kg/injection, schedule: Q04DX003 (ip), vehicle: distilled water + Tween-80, evaluated on day 30) is reported as 88, 139, 153, 160 (2×), 163, 166, 169, 175, 176, 177, 178, 180, 181, 184, 186, 187, 198, 203, 214, 215, 222 % of control and the T/C (dose: 50.0 mg/kg/injection, schedule: Q04DX003 (ip), vehicle: distilled water + Tween-80, evaluated on day 35) is reported as 164 % of control. The T/C (dose: 50.0 mg/kg/injection, schedule: Q04DX003 (ip), vehicle: distilled water + Tween-80, evaluated on day 45) was 177 % of control, the T/C (dose: 50.0 mg/kg/injection, schedule: Q04DX003 (ip), vehicle: distilled water + Tween-80, evaluated on day 60) was 144 % of control and the T/C (dose: 50.0 mg/kg/injection, schedule: Q04DX003 (ip), vehicle: saline with Tween-80) was 158, 183, 189, 190, 236 % of control. For the same compound, the T/C (dose: 50.0 mg/kg/injection, schedule: Q04DX003 (ip), vehicle: saline) was 147, 166, 169, 192, 203 % of control, the T/C (dose: 60.0 mg/kg/injection, schedule: Q04DX003 (ip), vehicle: saline with Tween-80) was 204, 213, 215, 260 % of control and the survivor count (dose: 64.0 mg/kg/injection, schedule: Q01DX005 (ip), vehicle: saline with Tween-80) was 6 of 6. The survivor count (dose: 64.0 mg/kg/injection, schedule: Q01DX005 (iv), vehicle: saline with Tween-80) was 0 of 6, the survivor count (dose: 64.0 mg/kg/injection, schedule: Q01DX005 (oral), vehicle: saline with Tween-80) was 6 of 6 and the survivor count (dose: 80.0 mg/kg/injection, schedule: Q01DX005 (ip), vehicle: saline with Tween-80) was 6 of 6. For the same compound, the survivor count (dose: 80.0 mg/kg/injection, schedule: Q01DX005 (iv), vehicle: saline with Tween-80) was 0 of 6, the survivor count (dose: 80.0 mg/kg/injection, schedule: Q04DX003 (ip), vehicle: water) was 3 of 6 and 5 of 6 and the survivor count (dose: 100.0 mg/kg/injection, schedule: Q01DX009 (ip), vehicle: saline with Tween-80) was 6 of 6. The T/C (dose: 100.0 mg/kg/injection, schedule: Q04DX002 (ip), vehicle: distilled water + Tween-80, evaluated on day 30) was 179, 183, 185, 186, 187, 188, 189, 190, 204, 213 % of control, the T/C (dose: 100.0 mg/kg/injection, schedule: Q04DX002 (ip), vehicle: distilled water + Tween-80, evaluated on day 35) was 171 % of control and the T/C (dose: 100.0 mg/kg/injection, schedule: Q04DX002 (ip), vehicle: saline with Tween-80, evaluated on day 30) was 130, 161, 182, 190, 209 % of control. For the same compound, the T/C (dose: 100.0 mg/kg/injection, schedule: Q04DX002 (ip), vehicle: saline with Tween-80, evaluated on day 45) was 188 % of control, the survivor count (dose: 100.0 mg/kg/injection, schedule: Q04DX003 (ip), vehicle: clinical formulation) was 4 of 6 and 5 of 6 and the T/C (dose: 100.0 mg/kg/injection, schedule: Q04DX003 (ip), vehicle: distilled water + Tween-80, evaluated on day 30) was 99, 105, 113, 118 (2×), 119, 121 [5 of 6 alive], 129, 130, 132, 133, 142, 145 (2×), 169, 181, 190, 205, 207, 209, 274 % of control. For the same compound, the T/C (dose: 100.0 mg/kg/injection, schedule: Q04DX003 (ip), vehicle: distilled water + Tween-80, evaluated on day 35) was 212 % of control, the T/C (dose: 100.0 mg/kg/injection, schedule: Q04DX003 (ip), vehicle: distilled water + Tween-80, evaluated on day 45) was 168 % of control and the T/C (dose: 100.0 mg/kg/injection, schedule: Q04DX003 (ip), vehicle: distilled water + Tween-80, evaluated on day 60) was 124 % of control. For the same compound, the survivor count (dose: 100.0 mg/kg/injection, schedule: Q04DX003 (ip), vehicle: distilled water + Tween-80) was 6 of 6, the T/C (dose: 100.0 mg/kg/injection, schedule: Q04DX003 (ip), vehicle: saline with Tween-80, evaluated on day 30) was 100, 109, 139, 186, 200 % of control and the T/C (dose: 100.0 mg/kg/injection, schedule: Q04DX003 (ip), vehicle: saline with Tween-80, evaluated on day 45) was 123, 132, 242 % of control. For the same compound, the T/C (dose: 100.0 mg/kg/injection, schedule: Q04DX003 (ip), vehicle: saline) was 161, 183, 198, 223, 288 % of control, the T/C (dose: 100.0 mg/kg/injection, schedule: Q04DX003 (ip), vehicle: water) was 130 % of control and the survivor count (dose: 128.0 mg/kg/injection, schedule: Q01DX005 (ip), vehicle: saline with Tween-80) was 6 of 6. For the same compound, the survivor count (dose: 128.0 mg/kg/injection, schedule: Q01DX005 (iv), vehicle: saline with Tween-80) was 0 of 6, the survivor count (dose: 128.0 mg/kg/injection, schedule: Q01DX005 (oral), vehicle: saline with Tween-80) was 6 of 6 and the T/C (dose: 200.0 mg/kg/injection, schedule: Q04DX002 (ip), vehicle: distilled water + Tween-80, evaluated on day 30) was 100, 102, 107 [5 of 6 alive], 115, 120, 134, 140, 208 % of control. For the same compound, the T/C (dose: 200.0 mg/kg/injection, schedule: Q04DX002 (ip), vehicle: distilled water + Tween-80, evaluated on day 35) was 90 % of control [5 of 6 alive], the survivor count (dose: 200.0 mg/kg/injection, schedule: Q04DX002 (ip), vehicle: distilled water + Tween-80) was 5 of 6 and 6 of 6 and the T/C (dose: 200.0 mg/kg/injection, schedule: Q04DX002 (ip), vehicle: saline with Tween-80, evaluated on day 30) was 90, 205 [5 of 6 alive], 219, 228 % of control [5 of 6 alive]. For the same compound, the T/C (dose: 200.0 mg/kg/injection, schedule: Q04DX002 (ip), vehicle: saline with Tween-80, evaluated on day 45) was 98, 150, 172, 255 % of control, the T/C (dose: 200.0 mg/kg/injection, schedule: Q04DX003 (ip), vehicle: distilled water + Tween-80, evaluated on day 30) was 88, 89 (3×), 90, 93, 93 [5 of 6 alive], 94 (2×), 95, 105, 106, 112, 130 % of control [5 of 6 alive] and the T/C (dose: 200.0 mg/kg/injection, schedule: Q04DX003 (ip), vehicle: distilled water + Tween-80, evaluated on day 35) was 101 % of control. The T/C (dose: 200.0 mg/kg/injection, schedule: Q04DX003 (ip), vehicle: distilled water + Tween-80, evaluated on day 60) was 102 % of control, the survivor count (dose: 200.0 mg/kg/injection, schedule: Q04DX003 (ip), vehicle: distilled water + Tween-80) was 6 of 6 (3×) and the T/C (dose: 200.0 mg/kg/injection, schedule: Q04DX003 (ip), vehicle: saline with Tween-80) was 86, 91, 99, 109, 247 % of control. For the same compound, the T/C (dose: 200.0 mg/kg/injection, schedule: Q04DX003 (ip), vehicle: saline) was 113, 114, 150, 212, 238 % of control, the T/C (dose: 200.0 mg/kg/injection, schedule: Q04DX003 (ip), vehicle: water) was 125 % of control and the survivor count (dose: 256.0 mg/kg/injection, schedule: Q01DX005 (oral), vehicle: saline with Tween-80) was 6 of 6.

Reference: PubChem BioAssay AID330 (DTP/NCI, 2004)
